In PubChem BioAssay AID1347076 (National Center for Advancing Translational Sciences (NCATS), 2019):
About 13,000 (3.2%) of roughly 400,000 compounds were called active. The inconclusive results got no clear call from the source; some entries with a clear call stand among them for comparison. Calls come from the whole dose curve; as a rule, active = well fitted cell-killing curve with a large enough effect; inconclusive = small, poorly fitted or top-dose-only effect, or effect the other way; inactive = flat fitted curve, though single readings scatter. Potencies of inconclusive entries are doubtful fits and often do not repeat.

experiment: qHTS assay for MDR1-selective chemotherapeutics: Primary screen using the drug-selected MDR subline cells KB-V1; settings: KB-V1 MDR cells viability, CellTiter-Glo, 72 h; activity change, negative = cytotoxicity: at 46.1 µM (top of the series); note: nearly all actives have a fitted effect of over 60% in size
Summary of the method: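 Compound-treated KB-V1 multidrug-resistant cells, 72 h, 37 degrees C; viability by CellTiter-Glo. Fitted qHTS curves give the values.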
% is set by controls: 0 for no effect and ±100 for the full control effect; potency is the fitted concentration of half-maximal effect.

SMILES	Potency	activity change, negative = cytotoxicity
CCc1cccc(NC(=O)Cn2nc(CC)n3c(cc4cc(C)ccc43)c2=O)c1	inactive	
Cc1ccc(CCNC(=O)C2CCCN(S(=O)(=O)c3cnc[nH]3)C2)cc1 (stereo unspecified)	inconclusive: 18.4 µM [rising, partial curve, poor fit]	
COc1ccc(NS(=O)(=O)c2cc(NC(=O)c3ccc(=O)[nH]n3)ccc2C)cc1	inconclusive: 23.1 µM [cytotoxic, single point]	
COCc1cc(=O)[nH]c(Nc2nc3ccc(C)cc3o2)n1	inconclusive: 7.31 µM [cytotoxic, partial curve]	
COc1cc(C)c(Cl)cc1S(=O)(=O)N(C)C	inactive	
CCOC(=O)c1sc(NC(=O)CCCn2nc([N+](=O)[O-])c(Cl)c2C)c(C(=O)OCC)c1C	inconclusive: 1.03 µM [cytotoxic, full curve]	
O=C(/C=C/c1ccc(F)cc1)NC(=S)Nc1ccccc1C(=O)NC1CCCCC1	active: 16.4 µM	
CC(=Cc1ccccc1)C(=O)c1ccccc1	inactive	
CCNC(=O)NC(=O)CSc1ccc(S(=O)(=O)N(C)C2CCCCC2)cn1	active: 20.6 µM	
N#Cc1cc([N+](=O)[O-])ccc1NC(=O)CSc1n[nH]c(=O)n1C1CC1	inconclusive: 14.6 µM [rising, partial curve, poor fit]	
Cc1ccc(NC(=O)CN2C(=O)c3ccccc3C2=O)nc1	inactive	
Cc1c(C(=O)NCc2ccccn2)oc2ccc(S(=O)(=O)N3CCOCC3)cc12	inconclusive: 23.1 µM [cytotoxic, single point]	
COc1ccccc1-c1c(-c2ccc(O)cc2O)n[nH]c1C(F)(F)F	inactive	
COc1ccccc1-c1nn(Cc2ccccc2)cc1C(=O)N1CCN(c2ncccn2)CC1	inconclusive: 25.9 µM [cytotoxic, single point]	
CCOC(=O)N1CCC(NC(=O)c2oc3c(C)c(C)ccc3c2C)CC1	inconclusive: 6.51 µM [cytotoxic, partial curve]	
Cc1nc(-c2cccc(NC(=O)c3ccc(Cl)c(S(=O)(=O)N4CCCC4)c3)c2)cs1	inconclusive: 32.6 µM [cytotoxic, single point]	
O=C1C2CC=CCC2C(=O)N1c1ccc(Cc2ccncc2)cc1 (stereo unspecified)	active: 16.4 µM	
CCOC(=O)CSC1=NC(=O)/C(=C\c2ccc(OC(C)=O)cc2)S1	inconclusive: 20.6 µM [cytotoxic, single point]	
CC1(C)Cc2c(sc(NC(=O)c3ccc4ncsc4c3)c2C(N)=O)C(C)(C)N1	inconclusive: 23.1 µM [cytotoxic, partial curve, poor fit]	
O=C(O)C[C@H]1c2cc(C(F)(F)F)ccc2S(=O)(=O)N1C1CCCCC1	inconclusive: 5.8 µM [rising, full curve]	
Cc1ccc2nc(NC(=O)CSc3nc4ccccc4o3)sc2c1	inconclusive: 29.1 µM [cytotoxic, single point]	
Cc1cccc2cc(CN(Cc3ccco3)C(=O)NC3CCCCC3)c(=O)[nH]c12	active: 3.66 µM	

Compounds above that have an aryl thioether with sulfur outside any ring (3):
SMILES	Potency	activity change, negative = cytotoxicity
CCNC(=O)NC(=O)CSc1ccc(S(=O)(=O)N(C)C2CCCCC2)cn1	active: 20.6 µM	
N#Cc1cc([N+](=O)[O-])ccc1NC(=O)CSc1n[nH]c(=O)n1C1CC1	inconclusive: 14.6 µM [rising, partial curve, poor fit]	
Cc1ccc2nc(NC(=O)CSc3nc4ccccc4o3)sc2c1	inconclusive: 29.1 µM [cytotoxic, single point]	

Later entries

SMILES	Potency	activity change, negative = cytotoxicity
CCC1CCCCN1CCCNC(=O)C1CCC(CNS(=O)(=O)c2c(C)cc(C)cc2C)CC1 (stereo unspecified)	inconclusive: 10.3 µM [rising, single point]	
Cc1ccc(NC(=O)c2cccnc2)cc1C	inconclusive: 16.4 µM [rising, partial curve, poor fit]	
Cc1nnc(SCCCCSc2nnc(C)c(=O)[nH]2)[nH]c1=O	inconclusive: 10.3 µM [rising, partial curve, poor fit]	
CC(NC(=O)C1CCN(S(=O)(=O)c2ccc(Br)s2)CC1)c1ccccc1 (stereo unspecified)	inconclusive: 16.4 µM [cytotoxic, partial curve]	
Cc1ccc(C(C)NC(=S)NC2CCCCC2)c(C)c1 (stereo unspecified)	inconclusive: 29.1 µM [cytotoxic, single point]	
CCS(=O)(=O)N1CCN(c2ccc([N+](=O)[O-])c(NCc3ccccc3)c2)CC1	inconclusive: 7.31 µM [cytotoxic, partial curve]	
O=C1CCC(C(=O)N2CCSCC2)CN1Cc1cccc(C(F)(F)F)c1 (stereo unspecified)	inconclusive: 29.1 µM [cytotoxic, single point]	
COCCCn1c(SCC(=O)NCc2ccccc2)nc2ccccc2c1=O	inconclusive: 29.1 µM [cytotoxic, single point]	
O=C(c1ccccc1)c1ccc(OCC(=O)N2CCOCC2)cc1	inconclusive: 29.1 µM [cytotoxic, single point]	
Cc1ccc(N2C(=O)c3cccc4c([N+](=O)[O-])ccc(c34)C2=O)c2cccnc12	inconclusive: 1.46 µM [cytotoxic, full curve]	
c1ccc(-c2cc3c(N4CCN(c5ncccn5)CC4)ncnc3s2)cc1	inconclusive: 20.6 µM [cytotoxic, single point]	
Cc1ccc(S(=O)(=O)N/N=C(\c2ccccc2)c2cccnc2)cc1	inactive	
CCC(C)C(=O)Nc1nnc(SCC(=O)Nc2ccc(F)cc2)s1 (stereo unspecified)	inconclusive: 18.4 µM [cytotoxic, single point]	
CC(C)CC1NC(=O)N(CC(=O)Nc2cc([N+](=O)[O-])ccc2F)C1=O (stereo unspecified)	inconclusive: 20.6 µM [cytotoxic, partial curve, poor fit]	
CCCCCn1c(N2CCC(Cc3ccccc3)CC2)nc2c1c(=O)[nH]c(=O)n2C	inconclusive: 20.6 µM [cytotoxic, single point]	
COc1ccnc2c1c(=O)n(Cc1cccc(F)c1)c(=O)n2C	inactive	
CS(=O)(=O)N(CC(=O)N1CCN(c2ccccc2)CC1)c1cc(C(F)(F)F)ccc1Cl	inconclusive: 23.1 µM [cytotoxic, single point]	
CCOc1cc(S(=O)(=O)n2ccnc2)ccc1Cl	inconclusive: 29.1 µM [rising, single point]	
COc1ccccc1NC(=O)CSc1nc2c(oc3ccccc32)c(=O)n1-c1ccc(C)cc1	inconclusive: 25.9 µM [cytotoxic, single point]	
COc1cc(C(=O)NCC(c2ccco2)N(C)C)cc(OC)c1OC (stereo unspecified)	inconclusive: 11.6 µM [cytotoxic, partial curve]	
CC(C)(C)c1ccc(-c2nc(C=O)c3ccccn23)cc1	active: 16.4 µM	
O=C(c1ccc([N+](=O)[O-])cc1Cl)N1CCN(c2ccccn2)CC1	inactive	

SMILES	Potency	activity change, negative = cytotoxicity
CCc1ccc(C(=O)N2CCN(c3ccc(NC(=O)c4cccnc4)cc3)CC2)cc1	inconclusive: 18.4 µM [cytotoxic, partial curve]	
O=C(C1CCCO1)N(Cc1ccccc1)c1ccccc1 (stereo unspecified)	inconclusive: 29.1 µM [cytotoxic, single point]	
Cn1cc(CN2CCC(n3nccc3NC(=O)C3CCCC3)CC2)cn1	inactive	
CCCOc1ccc(C(=O)Nc2ccc(N(C)C)cc2)cc1	inconclusive: 20.6 µM [cytotoxic, partial curve]	
Cc1nnc(SC(C)C(=O)NC2CCCc3ccccc32)n1-c1ccccc1 (stereo unspecified)	inconclusive: 13 µM [cytotoxic, partial curve]	
CC(=O)N/N=C(\C)CC(=O)Nc1ccc2c(c1)OCCO2	inconclusive: 16.4 µM [rising, partial curve]	
Cc1ccsc1C(=O)N1CCN(S(=O)(=O)c2cccs2)CC1	inconclusive: 20.6 µM [cytotoxic, single point]	
CC(C)Oc1ccc(C(=O)Nc2ccccc2N2CCCC2)cc1	inconclusive: 20.6 µM [cytotoxic, single point]	
COc1ccc(N2C(=O)C(CC(=O)Nc3ccccc3)N(Cc3ccc4c(c3)OCO4)C2=O)cc1 (stereo unspecified)	inconclusive: 8.2 µM [cytotoxic, partial curve, poor fit]	
C/C(=N/NS(=O)(=O)c1ccc(Cl)cc1)c1ccncc1		inconclusive: 37.4%
Cc1ccc(CNc2nc3c(S(=O)(=O)c4ccccc4)nnn3c3ccsc23)cc1		inconclusive: 31.9%
CN(CCOc1ccc(Cl)cc1)C(=O)c1ccc(S(=O)(=O)N2CCOCC2)cc1	inconclusive: 29.1 µM [cytotoxic, partial curve, poor fit]	
Cc1cccc(NC(=O)COc2ccc3c(c2)CCC3)n1	inconclusive: 32.6 µM [cytotoxic, partial curve, poor fit]	
CC(C)=CC(=O)Nc1nc2ccc([N+](=O)[O-])cc2s1	inconclusive: 23.1 µM [cytotoxic, partial curve]	
CCOC(=O)N1CCN(C(=O)c2ccc(N3CC4CC(C3)c3cccc(=O)n3C4)c(NC(=O)c3ccc(F)cc3)c2)CC1 (stereo unspecified)	inconclusive: 25.9 µM [rising, single point]	
O=C(NC1CCCc2ccccc21)c1ccccc1Cl (stereo unspecified)	inconclusive: 29.1 µM [cytotoxic, partial curve, poor fit]	
CC1=CC(C)(C)N(C(=O)c2ccccc2)c2ccccc21	inconclusive: 20.6 µM [cytotoxic, partial curve, poor fit]	
CCCCN1CCc2c1nc1ccc(Br)cc1c2N	active: 20.6 µM	
CCOc1ccccc1C1C(C(=O)Nc2ccccc2OC)=C(C)Nc2nc3ccccc3n21 (stereo unspecified)	inactive	
CCOC(=O)c1cc(-c2ccccc2)n(CCC(=O)N2CCN(c3ccc(OC)cc3)CC2)c1C	inconclusive: 18.4 µM [cytotoxic, single point]	
CC(C)CC(=O)NC(=S)Nc1nc(-c2cccc3ccccc23)cs1	inconclusive: 18.4 µM [cytotoxic, partial curve, poor fit]	
COc1ccc(-c2cc(N3CCCC3)n3ncnc3n2)cc1	inconclusive: 29.1 µM [cytotoxic, single point]	
